Source: the supplement of paper PMC12595434, “Development of retinoid nuclear receptor pathway antagonists through targeting aldehyde dehydrogenase 1A3” (iScience, 2025)
This is one part of the list. Single values of this set are uncertain.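 Tm was set to 64 °C where no melting was found, and many curves are irregular.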

By UniProt entry, the sequences of proteins in these tests, tags left out. Where a name states a change or a piece, a line headed by the entry shows the natural chain unless it says otherwise.
UniProt Q13888: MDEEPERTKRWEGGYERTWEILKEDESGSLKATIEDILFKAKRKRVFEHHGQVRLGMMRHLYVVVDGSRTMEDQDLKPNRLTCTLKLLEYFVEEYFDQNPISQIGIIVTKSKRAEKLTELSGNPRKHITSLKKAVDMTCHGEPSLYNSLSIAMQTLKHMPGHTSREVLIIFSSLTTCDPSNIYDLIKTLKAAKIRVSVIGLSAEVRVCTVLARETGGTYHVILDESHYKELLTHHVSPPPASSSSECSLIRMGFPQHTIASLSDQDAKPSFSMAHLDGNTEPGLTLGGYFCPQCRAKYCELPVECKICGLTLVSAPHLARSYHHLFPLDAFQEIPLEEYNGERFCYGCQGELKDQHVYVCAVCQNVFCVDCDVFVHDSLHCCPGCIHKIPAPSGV
UniProt Q15005: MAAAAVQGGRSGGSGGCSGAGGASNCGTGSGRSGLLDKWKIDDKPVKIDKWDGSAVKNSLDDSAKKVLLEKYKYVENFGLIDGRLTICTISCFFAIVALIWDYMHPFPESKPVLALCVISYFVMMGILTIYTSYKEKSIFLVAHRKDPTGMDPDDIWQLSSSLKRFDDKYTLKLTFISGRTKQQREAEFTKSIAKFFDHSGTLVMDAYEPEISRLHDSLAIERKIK
UniProt Q13685: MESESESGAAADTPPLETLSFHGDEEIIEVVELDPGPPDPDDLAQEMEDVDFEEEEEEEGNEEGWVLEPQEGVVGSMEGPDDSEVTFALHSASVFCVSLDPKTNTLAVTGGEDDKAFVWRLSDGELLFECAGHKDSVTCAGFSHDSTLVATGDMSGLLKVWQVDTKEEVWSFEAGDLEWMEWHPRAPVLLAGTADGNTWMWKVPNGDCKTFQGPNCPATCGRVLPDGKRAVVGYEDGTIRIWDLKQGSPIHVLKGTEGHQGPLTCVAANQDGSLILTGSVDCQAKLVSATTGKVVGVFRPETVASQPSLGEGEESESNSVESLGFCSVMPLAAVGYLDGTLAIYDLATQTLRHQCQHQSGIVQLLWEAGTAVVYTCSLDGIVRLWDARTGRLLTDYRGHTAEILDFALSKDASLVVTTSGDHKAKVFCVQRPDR
UniProt Q13112, whole entry, looked up: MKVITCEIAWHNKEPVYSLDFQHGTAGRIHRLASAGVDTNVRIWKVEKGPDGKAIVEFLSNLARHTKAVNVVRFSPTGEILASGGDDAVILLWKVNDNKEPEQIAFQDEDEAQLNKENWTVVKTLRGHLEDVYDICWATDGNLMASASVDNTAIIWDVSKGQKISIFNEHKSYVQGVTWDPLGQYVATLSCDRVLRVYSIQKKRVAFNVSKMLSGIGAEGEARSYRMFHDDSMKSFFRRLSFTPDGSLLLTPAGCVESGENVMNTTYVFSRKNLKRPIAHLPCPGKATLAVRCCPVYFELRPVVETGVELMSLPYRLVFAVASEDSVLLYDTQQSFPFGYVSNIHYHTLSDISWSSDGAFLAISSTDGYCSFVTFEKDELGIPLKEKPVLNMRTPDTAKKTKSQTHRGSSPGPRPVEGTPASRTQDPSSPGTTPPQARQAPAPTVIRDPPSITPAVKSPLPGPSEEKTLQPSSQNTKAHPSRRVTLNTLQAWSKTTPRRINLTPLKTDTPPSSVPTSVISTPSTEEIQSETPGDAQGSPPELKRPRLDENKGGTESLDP
UniProt Q14114: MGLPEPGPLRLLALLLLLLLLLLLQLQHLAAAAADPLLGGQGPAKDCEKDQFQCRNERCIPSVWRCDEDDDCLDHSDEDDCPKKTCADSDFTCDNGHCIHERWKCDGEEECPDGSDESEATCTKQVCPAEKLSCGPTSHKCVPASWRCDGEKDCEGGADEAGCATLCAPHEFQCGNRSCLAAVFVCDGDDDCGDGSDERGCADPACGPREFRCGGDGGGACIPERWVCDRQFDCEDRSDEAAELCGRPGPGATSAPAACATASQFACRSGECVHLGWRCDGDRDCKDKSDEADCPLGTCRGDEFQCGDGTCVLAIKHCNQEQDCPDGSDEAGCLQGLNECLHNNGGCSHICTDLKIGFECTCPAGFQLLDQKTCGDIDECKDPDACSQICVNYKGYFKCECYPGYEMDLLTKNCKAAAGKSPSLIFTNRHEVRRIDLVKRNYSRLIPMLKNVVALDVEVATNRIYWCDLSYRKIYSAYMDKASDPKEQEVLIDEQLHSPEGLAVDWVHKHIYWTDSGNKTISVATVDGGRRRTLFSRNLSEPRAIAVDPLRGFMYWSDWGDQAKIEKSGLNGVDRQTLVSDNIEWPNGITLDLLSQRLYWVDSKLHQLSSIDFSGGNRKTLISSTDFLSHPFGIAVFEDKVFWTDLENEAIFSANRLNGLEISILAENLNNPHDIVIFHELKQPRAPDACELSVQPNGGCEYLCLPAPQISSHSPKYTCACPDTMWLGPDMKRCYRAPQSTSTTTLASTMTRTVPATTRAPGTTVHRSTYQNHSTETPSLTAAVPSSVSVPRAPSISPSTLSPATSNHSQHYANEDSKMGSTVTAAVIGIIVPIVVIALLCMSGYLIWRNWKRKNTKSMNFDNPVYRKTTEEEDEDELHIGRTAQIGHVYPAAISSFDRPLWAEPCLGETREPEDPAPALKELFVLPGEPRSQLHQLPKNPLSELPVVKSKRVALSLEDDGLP
UniProt Q14807: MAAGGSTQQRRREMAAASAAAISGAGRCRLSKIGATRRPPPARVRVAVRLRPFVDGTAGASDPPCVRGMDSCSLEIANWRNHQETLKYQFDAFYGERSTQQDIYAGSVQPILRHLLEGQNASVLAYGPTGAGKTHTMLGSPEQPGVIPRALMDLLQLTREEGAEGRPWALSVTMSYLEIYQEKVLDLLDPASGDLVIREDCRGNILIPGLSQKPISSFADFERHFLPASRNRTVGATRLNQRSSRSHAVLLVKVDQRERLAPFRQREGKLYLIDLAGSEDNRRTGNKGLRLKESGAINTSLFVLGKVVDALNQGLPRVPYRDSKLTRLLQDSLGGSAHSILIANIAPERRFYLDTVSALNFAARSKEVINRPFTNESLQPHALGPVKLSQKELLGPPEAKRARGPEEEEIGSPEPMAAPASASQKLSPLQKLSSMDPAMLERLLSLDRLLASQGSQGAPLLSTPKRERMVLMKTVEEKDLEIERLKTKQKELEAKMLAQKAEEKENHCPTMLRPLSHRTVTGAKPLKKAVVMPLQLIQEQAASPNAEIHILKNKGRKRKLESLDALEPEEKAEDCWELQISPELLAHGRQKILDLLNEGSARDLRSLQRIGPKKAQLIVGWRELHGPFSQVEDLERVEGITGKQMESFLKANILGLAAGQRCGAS
UniProt Q14320: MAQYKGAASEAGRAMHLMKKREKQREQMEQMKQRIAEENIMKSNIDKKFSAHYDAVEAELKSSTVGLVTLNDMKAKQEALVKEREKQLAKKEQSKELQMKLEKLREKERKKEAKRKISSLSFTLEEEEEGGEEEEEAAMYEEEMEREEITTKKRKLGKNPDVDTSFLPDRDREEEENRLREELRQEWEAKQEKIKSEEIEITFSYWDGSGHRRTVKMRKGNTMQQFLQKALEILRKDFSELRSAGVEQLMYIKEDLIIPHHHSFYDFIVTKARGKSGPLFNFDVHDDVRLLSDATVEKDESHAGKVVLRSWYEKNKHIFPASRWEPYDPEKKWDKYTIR
UniProt Q13907: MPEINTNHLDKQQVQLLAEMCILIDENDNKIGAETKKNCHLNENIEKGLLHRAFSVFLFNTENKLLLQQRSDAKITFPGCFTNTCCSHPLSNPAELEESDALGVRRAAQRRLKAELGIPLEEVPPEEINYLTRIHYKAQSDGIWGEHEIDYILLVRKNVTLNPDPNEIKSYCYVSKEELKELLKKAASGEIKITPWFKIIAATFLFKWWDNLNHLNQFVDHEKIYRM
UniProt Q14444, whole entry: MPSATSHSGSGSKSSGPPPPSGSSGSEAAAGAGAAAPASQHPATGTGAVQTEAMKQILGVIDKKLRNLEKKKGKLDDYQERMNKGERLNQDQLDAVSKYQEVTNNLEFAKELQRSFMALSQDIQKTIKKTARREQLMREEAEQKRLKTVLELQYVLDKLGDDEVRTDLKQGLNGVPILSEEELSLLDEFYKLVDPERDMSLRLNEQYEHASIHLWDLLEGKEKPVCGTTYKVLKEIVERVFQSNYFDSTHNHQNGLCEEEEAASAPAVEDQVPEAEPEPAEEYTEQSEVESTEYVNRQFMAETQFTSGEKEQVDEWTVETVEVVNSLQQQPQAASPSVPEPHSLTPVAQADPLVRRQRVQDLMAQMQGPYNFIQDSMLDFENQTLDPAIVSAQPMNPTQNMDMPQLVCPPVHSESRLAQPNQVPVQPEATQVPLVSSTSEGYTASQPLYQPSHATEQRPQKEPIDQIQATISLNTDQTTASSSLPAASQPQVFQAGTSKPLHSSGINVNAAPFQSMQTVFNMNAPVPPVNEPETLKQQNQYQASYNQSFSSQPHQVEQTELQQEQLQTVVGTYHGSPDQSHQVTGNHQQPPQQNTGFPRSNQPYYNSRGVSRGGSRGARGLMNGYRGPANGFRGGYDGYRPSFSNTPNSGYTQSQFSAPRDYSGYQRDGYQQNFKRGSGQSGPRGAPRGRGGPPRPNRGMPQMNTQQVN
UniProt Q13367: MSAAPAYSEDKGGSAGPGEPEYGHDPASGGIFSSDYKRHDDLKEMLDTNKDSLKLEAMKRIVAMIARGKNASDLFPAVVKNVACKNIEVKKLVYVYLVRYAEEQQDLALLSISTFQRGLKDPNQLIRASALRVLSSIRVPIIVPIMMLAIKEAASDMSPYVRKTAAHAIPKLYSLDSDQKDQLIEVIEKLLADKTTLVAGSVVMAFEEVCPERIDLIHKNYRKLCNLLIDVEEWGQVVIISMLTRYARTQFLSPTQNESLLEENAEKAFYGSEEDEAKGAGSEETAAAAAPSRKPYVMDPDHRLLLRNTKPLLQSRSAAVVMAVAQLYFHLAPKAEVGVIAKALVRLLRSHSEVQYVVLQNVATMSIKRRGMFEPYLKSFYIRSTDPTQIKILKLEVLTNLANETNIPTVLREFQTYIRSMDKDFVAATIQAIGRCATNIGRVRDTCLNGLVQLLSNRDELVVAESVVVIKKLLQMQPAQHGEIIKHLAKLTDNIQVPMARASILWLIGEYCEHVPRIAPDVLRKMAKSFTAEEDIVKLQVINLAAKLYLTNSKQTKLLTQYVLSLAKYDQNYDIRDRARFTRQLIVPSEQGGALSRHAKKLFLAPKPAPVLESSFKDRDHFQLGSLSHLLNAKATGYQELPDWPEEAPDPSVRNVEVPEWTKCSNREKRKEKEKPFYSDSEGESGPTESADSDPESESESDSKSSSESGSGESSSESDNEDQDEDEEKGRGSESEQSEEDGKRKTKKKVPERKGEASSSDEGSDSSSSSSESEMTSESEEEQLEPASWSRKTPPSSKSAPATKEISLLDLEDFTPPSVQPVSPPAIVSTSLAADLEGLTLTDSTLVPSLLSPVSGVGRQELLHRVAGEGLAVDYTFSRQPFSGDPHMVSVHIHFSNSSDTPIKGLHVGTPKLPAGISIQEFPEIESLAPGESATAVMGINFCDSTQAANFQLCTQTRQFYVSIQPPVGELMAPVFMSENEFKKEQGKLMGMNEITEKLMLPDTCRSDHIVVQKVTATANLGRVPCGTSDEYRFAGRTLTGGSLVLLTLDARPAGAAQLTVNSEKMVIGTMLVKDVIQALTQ
UniProt Q14232, whole entry: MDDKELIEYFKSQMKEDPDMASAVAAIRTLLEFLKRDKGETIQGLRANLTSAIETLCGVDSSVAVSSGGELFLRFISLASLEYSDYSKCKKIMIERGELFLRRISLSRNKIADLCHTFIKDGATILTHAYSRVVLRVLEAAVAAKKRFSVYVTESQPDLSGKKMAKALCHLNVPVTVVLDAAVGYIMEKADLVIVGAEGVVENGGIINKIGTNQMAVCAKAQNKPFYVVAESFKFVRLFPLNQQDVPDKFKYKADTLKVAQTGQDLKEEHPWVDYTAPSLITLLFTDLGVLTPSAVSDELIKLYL
UniProt Q15036: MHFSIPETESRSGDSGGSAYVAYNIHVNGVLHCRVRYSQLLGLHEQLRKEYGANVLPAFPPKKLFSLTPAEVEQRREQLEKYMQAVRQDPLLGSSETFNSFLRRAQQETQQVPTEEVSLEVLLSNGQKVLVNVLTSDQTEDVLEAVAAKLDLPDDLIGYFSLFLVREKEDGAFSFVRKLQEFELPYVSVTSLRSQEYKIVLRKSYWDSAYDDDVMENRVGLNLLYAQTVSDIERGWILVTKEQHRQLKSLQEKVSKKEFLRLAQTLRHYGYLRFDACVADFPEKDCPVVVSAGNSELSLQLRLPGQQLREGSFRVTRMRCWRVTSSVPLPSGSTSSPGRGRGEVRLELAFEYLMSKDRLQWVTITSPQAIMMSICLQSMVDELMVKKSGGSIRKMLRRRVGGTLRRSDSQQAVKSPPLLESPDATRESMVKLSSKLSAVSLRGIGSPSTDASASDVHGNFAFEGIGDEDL
UniProt Q13185: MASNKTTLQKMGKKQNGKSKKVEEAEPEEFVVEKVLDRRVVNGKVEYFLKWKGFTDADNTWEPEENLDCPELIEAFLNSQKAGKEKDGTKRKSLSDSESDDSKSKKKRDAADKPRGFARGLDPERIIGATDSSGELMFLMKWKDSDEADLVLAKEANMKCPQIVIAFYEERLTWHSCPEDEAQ

Compound: CCc1cnccc1C(=O)Nc1cc2c(cc1F)NC(=O)CC2
Assay: melting temperature shift (DMSO Tm minus MBE1-treated Tm) in cellular thermal proteome profiling; higher = less thermal stabilization by MBE1 (negative = stabilized by MBE1)
Details: A375

ILK (UniProt Q13418)
melting temperature shift (MBE1 concentration: 100 nM): 1.15 °C
melting temperature shift (MBE1 concentration: 1 uM): 0.696 °C

BYSL (UniProt Q13895)
melting temperature shift (MBE1 concentration: 100 nM): -0.616 °C
melting temperature shift (MBE1 concentration: 1 uM): -0.598 °C

DHX34 (UniProt Q14147)
melting temperature shift (MBE1 concentration: 100 nM): -0.755 °C
melting temperature shift (MBE1 concentration: 1 uM): -0.532 °C

UniProt Q13888
melting temperature shift (MBE1 concentration: 100 nM): -1.12 °C
melting temperature shift (MBE1 concentration: 1 uM): -0.0047 °C

SPCS2 (UniProt Q15005)
melting temperature shift (MBE1 concentration: 100 nM): -0.329 °C
melting temperature shift (MBE1 concentration: 1 uM): -0.186 °C

LARS2 (UniProt Q15031)
melting temperature shift (MBE1 concentration: 100 nM): 0.104 °C
melting temperature shift (MBE1 concentration: 1 uM): -0.195 °C

AAMP (UniProt Q13685)
melting temperature shift (MBE1 concentration: 100 nM): -1.19 °C
melting temperature shift (MBE1 concentration: 1 uM): -0.922 °C

TRIM25 (UniProt Q14258)
melting temperature shift (MBE1 concentration: 100 nM): -0.574 °C
melting temperature shift (MBE1 concentration: 1 uM): -0.527 °C

GNA13 (UniProt Q14344)
melting temperature shift (MBE1 concentration: 100 nM): -0.999 °C
melting temperature shift (MBE1 concentration: 1 uM): 0.0268 °C

CHAF1B (UniProt Q13112)
melting temperature shift (MBE1 concentration: 100 nM): -1.32 °C
melting temperature shift (MBE1 concentration: 1 uM): -0.794 °C

LRP8 (UniProt Q14114)
melting temperature shift (MBE1 concentration: 100 nM): -1.78 °C
melting temperature shift (MBE1 concentration: 1 uM): -2.42 °C

KIF22 (UniProt Q14807)
melting temperature shift (MBE1 concentration: 100 nM): -0.34 °C
melting temperature shift (MBE1 concentration: 1 uM): -0.269 °C

UniProt Q15052
melting temperature shift (MBE1 concentration: 100 nM): -0.997 °C
melting temperature shift (MBE1 concentration: 1 uM): -0.583 °C

GAMT (UniProt Q14353)
melting temperature shift (MBE1 concentration: 100 nM): 0.311 °C
melting temperature shift (MBE1 concentration: 1 uM): 0.702 °C

KARS (UniProt Q15046)
melting temperature shift (MBE1 concentration: 100 nM): 1.01 °C
melting temperature shift (MBE1 concentration: 1 uM): 0.574 °C

TOP3A (UniProt Q13472)
melting temperature shift (MBE1 concentration: 100 nM): 5.51 °C
melting temperature shift (MBE1 concentration: 1 uM): 0.718 °C

MRPL49 (UniProt Q13405)
melting temperature shift (MBE1 concentration: 100 nM): 0.568 °C
melting temperature shift (MBE1 concentration: 1 uM): 1.17 °C

G3BP1 (UniProt Q13283)
melting temperature shift (MBE1 concentration: 100 nM): -0.434 °C
melting temperature shift (MBE1 concentration: 1 uM): 0.263 °C

RIN1 (UniProt Q13671)
melting temperature shift (MBE1 concentration: 100 nM): -0.184 °C
melting temperature shift (MBE1 concentration: 1 uM): -0.327 °C

FAM50A (UniProt Q14320)
melting temperature shift (MBE1 concentration: 100 nM): -0.659 °C
melting temperature shift (MBE1 concentration: 1 uM): -1.09 °C

NCAPD2 (UniProt Q15021)
melting temperature shift (MBE1 concentration: 100 nM): -0.923 °C
melting temperature shift (MBE1 concentration: 1 uM): -0.511 °C

HDAC1 (UniProt Q13547)
melting temperature shift (MBE1 concentration: 100 nM): -0.32 °C
melting temperature shift (MBE1 concentration: 1 uM): -0.921 °C

FLII (UniProt Q13045)
melting temperature shift (MBE1 concentration: 100 nM): -0.104 °C
melting temperature shift (MBE1 concentration: 1 uM): -0.055 °C

SNX1 (UniProt Q13596)
melting temperature shift (MBE1 concentration: 100 nM): 0.134 °C
melting temperature shift (MBE1 concentration: 1 uM): 0.0427 °C

IDI1 (UniProt Q13907)
melting temperature shift (MBE1 concentration: 100 nM): -1.05 °C
melting temperature shift (MBE1 concentration: 1 uM): 1.23 °C

CAPRIN1 (UniProt Q14444)
melting temperature shift (MBE1 concentration: 100 nM): -0.99 °C
melting temperature shift (MBE1 concentration: 1 uM): -1.58 °C

RAB3GAP1 (UniProt Q15042)
melting temperature shift (MBE1 concentration: 100 nM): -0.452 °C
melting temperature shift (MBE1 concentration: 1 uM): -0.499 °C

UniProt Q13367
melting temperature shift (MBE1 concentration: 100 nM): 0.629 °C
melting temperature shift (MBE1 concentration: 1 uM): 0.183 °C

UniProt Q14156
melting temperature shift (MBE1 concentration: 100 nM): -0.055 °C
melting temperature shift (MBE1 concentration: 1 uM): 0.195 °C

MCM6 (UniProt Q14566)
melting temperature shift (MBE1 concentration: 100 nM): 0.232 °C
melting temperature shift (MBE1 concentration: 1 uM): 0.434 °C

UniProt Q13394
melting temperature shift (MBE1 concentration: 100 nM): -0.171 °C
melting temperature shift (MBE1 concentration: 1 uM): 0.0916 °C

PAK1 (UniProt Q13153)
melting temperature shift (MBE1 concentration: 100 nM): -1.4 °C
melting temperature shift (MBE1 concentration: 1 uM): 0.55 °C

OS9 (UniProt Q13438)
melting temperature shift (MBE1 concentration: 100 nM): -2.08 °C
melting temperature shift (MBE1 concentration: 1 uM): 0.865 °C

EIF2B1 (UniProt Q14232)
melting temperature shift (MBE1 concentration: 100 nM): -1.44 °C
melting temperature shift (MBE1 concentration: 1 uM): 0.336 °C

SNX17 (UniProt Q15036)
melting temperature shift (MBE1 concentration: 100 nM): -1.25 °C
melting temperature shift (MBE1 concentration: 1 uM): -0.696 °C

UniProt Q13352
melting temperature shift (MBE1 concentration: 100 nM): -1.18 °C
melting temperature shift (MBE1 concentration: 1 uM): -1.01 °C

RRP1B (UniProt Q14684)
melting temperature shift (MBE1 concentration: 100 nM): -0.32 °C
melting temperature shift (MBE1 concentration: 1 uM): -0.275 °C

MTMR1 (UniProt Q13613)
melting temperature shift (MBE1 concentration: 100 nM): 0.321 °C
melting temperature shift (MBE1 concentration: 1 uM): 0.0488 °C

CBX3 (UniProt Q13185)
melting temperature shift (MBE1 concentration: 100 nM): 0.25 °C
melting temperature shift (MBE1 concentration: 1 uM): -0.244 °C

PLS1 (UniProt Q14651)
melting temperature shift (MBE1 concentration: 100 nM): -0.0366 °C
melting temperature shift (MBE1 concentration: 1 uM): 0.403 °C

NAA30 (UniProt Q147X3)
melting temperature shift (MBE1 concentration: 100 nM): 0.397 °C
melting temperature shift (MBE1 concentration: 1 uM): 0.464 °C

CALCOCO2 (UniProt Q13137)
melting temperature shift (MBE1 concentration: 100 nM): -0.475 °C
melting temperature shift (MBE1 concentration: 1 uM): 0.501 °C

STX5 (UniProt Q13190)
melting temperature shift (MBE1 concentration: 100 nM): -0.278 °C
melting temperature shift (MBE1 concentration: 1 uM): -0.437 °C

PIN1 (UniProt Q13526)
melting temperature shift (MBE1 concentration: 100 nM): 0.855 °C
melting temperature shift (MBE1 concentration: 1 uM): -0.385 °C

ICT1 (UniProt Q14197)
melting temperature shift (MBE1 concentration: 100 nM): -0.507 °C
melting temperature shift (MBE1 concentration: 1 uM): 0.537 °C

CAMK2G (UniProt Q13555)
melting temperature shift (MBE1 concentration: 100 nM): -0.806 °C
melting temperature shift (MBE1 concentration: 1 uM): -0.611 °C
